No constants are given. Whether binding was seen depends on the method and setting. Binding seen in cells or lysates may run through a third protein. Some results given as binding are weak or reduced against the parent protein; the word gives no strength. Blank lines part the entries; values can stand above or below the substance they belong to.
Assays:
[1] = molecular target: GST-p27 (UniProt P46527); assay: pull-down; purified GST fusion immobilised on glutathione-conjugated sepharose beads, incubated with in vitro transcribed/translated protein for 4 h at 4°C; Western blot; only the target purified
[2] = molecular target: GST-SIRT6 (UniProt Q8N6T7); assay: as above
[3] = molecular target: flag-SIRT6 (UniProt Q8N6T7); assay: co-IP; 293 cells co-transfected with flag-SIRT6 and myc-p27; IP with flag antibody; lysis buffer 25 mM Tris-HCl pH 7.4, 150 mM NaCl, 1% Nonidet P-40, 1 mM EDTA, 5% glycerol
[4] = molecular target: flag-SIRT6 (UniProt Q8N6T7); assay: co-IP; 293 cells transfected with flag-SIRT6 or flag-ΔSIRT6; IP with flag antibody; blots with flag and p27 antibody
[5] = molecular target: SIRT6 (Sirtuin6), endogenous (human (endogenous in HEK293)) (UniProt Q8N6T7); assay: co-IP; endogenous SIRT6 and p27 in 293 cells; lysis buffer 25 mM Tris-HCl pH 7.4, 150 mM NaCl, 1% Nonidet P-40, 1 mM EDTA, 5% glycerol; antibody overnight at 4°C

The chains behind the UniProt entries cited, without tags or fusion partners.
UniProt P46527: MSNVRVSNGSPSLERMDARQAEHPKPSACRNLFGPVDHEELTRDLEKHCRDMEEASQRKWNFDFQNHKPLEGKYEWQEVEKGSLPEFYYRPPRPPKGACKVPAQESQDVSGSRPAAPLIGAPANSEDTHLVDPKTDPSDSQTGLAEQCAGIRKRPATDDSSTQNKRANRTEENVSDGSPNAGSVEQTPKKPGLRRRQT
UniProt Q8N6T7: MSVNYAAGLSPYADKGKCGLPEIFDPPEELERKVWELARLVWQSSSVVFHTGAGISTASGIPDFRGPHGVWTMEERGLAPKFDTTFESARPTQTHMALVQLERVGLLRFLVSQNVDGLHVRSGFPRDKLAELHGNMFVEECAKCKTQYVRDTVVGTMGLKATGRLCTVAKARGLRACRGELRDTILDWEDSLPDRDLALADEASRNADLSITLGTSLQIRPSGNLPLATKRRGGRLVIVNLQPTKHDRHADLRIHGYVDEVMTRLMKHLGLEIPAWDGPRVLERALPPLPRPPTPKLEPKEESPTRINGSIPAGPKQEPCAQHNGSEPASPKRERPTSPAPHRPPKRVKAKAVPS

binding [1]: binds
Substance: in vitro transcribed and translated SIRT6 (from UniProt Q8N6T7 1-355)

binding [2]: binds
Substance: in vitro transcribed and translated p27 (from UniProt P46527 1-198)

binding [3]: binds
Substance: myc-p27 (from UniProt P46527 1-198)

binding [4]: binds
binding [5]: binds
Substance: p27Kip1 (p27), endogenous (from UniProt P46527 1-198)

Reference: PMC5115890
